In US20190100563A1 (UNIVERSITY COURT OF THE UNIVERSITY OF EDINBURGH, published 2019):
Results are given in words; binding and its absence hold for the method and conditions named. Some results given as binding are weak or reduced against the parent protein; the word gives no strength. For some of these results: Where a sequence is shown, tags or fusion partners need not be part of it.

The chains behind the UniProt entries cited, without tags or fusion partners. Where a name states a change or a piece, a line headed by the entry shows the natural chain unless it says otherwise.
UniProt P08603: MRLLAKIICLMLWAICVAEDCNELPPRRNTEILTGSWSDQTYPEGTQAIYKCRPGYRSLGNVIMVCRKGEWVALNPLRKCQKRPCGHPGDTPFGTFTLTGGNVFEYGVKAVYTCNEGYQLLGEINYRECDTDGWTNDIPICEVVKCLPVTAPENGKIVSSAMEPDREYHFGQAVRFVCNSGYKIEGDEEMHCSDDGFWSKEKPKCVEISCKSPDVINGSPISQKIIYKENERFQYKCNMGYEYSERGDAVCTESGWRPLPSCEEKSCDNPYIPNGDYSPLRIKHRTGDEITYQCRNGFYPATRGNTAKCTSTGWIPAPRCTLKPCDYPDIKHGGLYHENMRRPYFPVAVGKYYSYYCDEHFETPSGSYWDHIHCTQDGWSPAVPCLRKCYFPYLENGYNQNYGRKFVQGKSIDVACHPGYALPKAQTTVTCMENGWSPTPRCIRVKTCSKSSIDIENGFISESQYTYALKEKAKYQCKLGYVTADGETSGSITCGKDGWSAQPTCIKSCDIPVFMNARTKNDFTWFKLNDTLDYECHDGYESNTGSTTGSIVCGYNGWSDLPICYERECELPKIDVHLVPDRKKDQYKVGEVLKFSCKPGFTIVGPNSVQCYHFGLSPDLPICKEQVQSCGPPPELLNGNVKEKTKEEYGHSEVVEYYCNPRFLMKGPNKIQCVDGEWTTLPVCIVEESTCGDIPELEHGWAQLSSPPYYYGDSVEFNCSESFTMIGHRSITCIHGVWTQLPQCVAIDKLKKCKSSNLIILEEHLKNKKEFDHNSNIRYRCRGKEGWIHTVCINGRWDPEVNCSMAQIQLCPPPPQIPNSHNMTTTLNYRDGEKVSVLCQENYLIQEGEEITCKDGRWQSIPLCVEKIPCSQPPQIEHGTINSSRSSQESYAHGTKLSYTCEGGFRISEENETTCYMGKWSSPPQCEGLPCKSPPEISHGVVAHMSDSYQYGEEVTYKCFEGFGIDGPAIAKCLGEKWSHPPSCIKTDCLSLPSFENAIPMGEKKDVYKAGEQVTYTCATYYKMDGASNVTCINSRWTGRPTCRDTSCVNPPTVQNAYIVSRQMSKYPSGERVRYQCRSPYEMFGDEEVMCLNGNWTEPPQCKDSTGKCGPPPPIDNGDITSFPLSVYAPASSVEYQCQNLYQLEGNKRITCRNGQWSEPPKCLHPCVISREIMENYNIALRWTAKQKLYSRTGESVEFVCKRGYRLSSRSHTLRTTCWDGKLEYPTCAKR

B1: PspCN (cleaved, PspC residues 37-140, S. pneumoniae strain D39) (other)
chain: ATENEGSTQAATSSNMAKTEHRKAAKQVVDEYIEKMLREIQLDRRKHTQNVALNIKLSAIKTKYLRELNVLEEKSKDELPSEIKAKLDAAFEKFKKDTLKPGEK
B2: sPspCN (N-terminally hexaHis-SUMO-tagged PspC residues 37-140, S. pneumoniae strain D39) (other)
chain: B1 chain
notes: not shown: N-terminal hexaHis-SUMO tag from the pE-SUMOpro Kan vector

What was measured:
[1] = target: CFH 8-9 (recombinant fragment, CCPs 8-9 of human CFH) (human) (UniProt P08603); experiment: 1H,15N HSQC NMR
[2] = target: CFH 8-9 (recombinant fragment, CCPs 8-9 of human CFH) (human) (UniProt P08603); experiment: 1H,15N HSQC NMR of the labelled protein without and with the unlabelled partner
[3] = target: CFH 19-20 (recombinant fragment, CCPs 19-20 of human CFH) (human) (UniProt P08603); experiment: SPR, sPspCN on NTA/Ni2+ chip
[4] = target: CFH 8-9 (recombinant fragment, CCPs 8-9 of human CFH) (human) (UniProt P08603); experiment: SPR, sPspCN on NTA/Ni2+ chip

Row | Binder | binding [1] | binding [2] | binding [3] | binding [4]
1 | B1 | binds | binds |  | 
2 | B2 |  |  | binds | binds
